PubChem BioAssay AID1224826 – NIAID – 2016

Screen: 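Knock-downs that raise or lower Tnf reporter signal after endotoxin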 (primary screen)
System: RAW264.7 G9 macrophages from mouse bearing reporters for p65 (GFP) and the Tnf promoter (mCherry)
Reagent: siRNA pool against mouse genes, 100 nM
Timing: 16 h of LPS stimulation, after 2 days of siRNA transfection
Conditions: bacterial lipopolysaccharide (Salmonella minnesota R595), 10 ng/ml
Measurement: 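Nuclear mCherry signal of the Tnf promoter reporter measured by imaging after background removal, scaled to each plate median and turned into robust z-scores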
Reading the numbers: Tnf reporter robust z-score: higher = stronger Tnf promoter reporter signal after LPS
Rule for the call: 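a well counts as active at a score of -1.3 or below (Tlr4 knock-down control median) or above 3 (raised signal); controls and wells holding fewer than 50 cells are excluded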
Meaning of the calls: active = Tnf reporter clearly lowered or raised; inactive = no clear change in Tnf reporter
The whole screen tested about 17,000 reagents; below is a random part of them. About 1,110 of all reagents (6.6%) count as active. 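Active means lowered or raised reporter signal; replicate intensities are raw and not normalised per plate.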 Unmarked entries are inactive. Some reagents were tested in more than one well and are listed for each. Further read-outs or replicates are left out here.

gene knocked down | PubChem SID | Tnf reporter robust z-score | fewer than 50 cells in well
Vmn1r29 (vomeronasal 1 receptor 29) | SID315476987 | 0.7 | enough cells in well
Pkn2 (protein kinase N2) | SID315476826 | -0.76 | enough cells in well
Pcdhb4 (protocadherin beta 4) | SID315475987 | 1.79 | enough cells in well
Gpr149 (G protein-coupled receptor 149) | SID315478701 | 0.18 | enough cells in well
Krtap12-1 (keratin associated protein 12-1) | SID315467702 | -1.35 (active) | enough cells in well
Gpalpp1 (GPALPP motifs containing 1) | SID315473046 | 1.2 | enough cells in well
Ppp1r1c (protein phosphatase 1, regulatory inhibitor subunit 1C) | SID315475093 | – | fewer than 50 cells per well; well left out of calls
Cd48 (CD48 antigen) | SID315465864 | 0.52 | enough cells in well
Klhl18 (kelch-like 18) | SID315480931 | 2.25 | enough cells in well
Pfkp (phosphofructokinase, platelet) | SID315471522 | 0.67 | enough cells in well
Fam107b (family with sequence similarity 107, member B) | SID315472502 | – | fewer than 50 cells per well; well left out of calls
Kyat3 (kynurenine aminotransferase 3) | SID315478750 | -1.11 | enough cells in well
Mrpl19 (mitochondrial ribosomal protein L19) | SID315471432 | -0.82 | enough cells in well
Kif2b (kinesin family member 2B) | SID315474736 | -0.39 | enough cells in well
Serpinb9c (serine (or cysteine) peptidase inhibitor, clade B, member 9c) | SID315469409 | 1 | enough cells in well
Slc18a2 | SID315477839 | 0.36 | enough cells in well
Cpap (centrosome assembly and centriole elongation protein) | SID315478235 | 1.54 | enough cells in well
Ube2a (ubiquitin-conjugating enzyme E2A) | SID315469908 | – | fewer than 50 cells per well; well left out of calls
C2cd5 (C2 calcium-dependent domain containing 5) | SID315475034 | 0.1 | enough cells in well
Serpinb12 | SID315474356 | 1.59 | enough cells in well
Or2z2 (olfactory receptor family 2 subfamily Z member 2) | SID315468308 | – | fewer than 50 cells per well; well left out of calls
Tas1r1 (taste receptor, type 1, member 1) | SID315476896 | 1.53 | enough cells in well
Plekha2 (pleckstrin homology domain containing A2) | SID315475824 | -0.6 | enough cells in well
B4galt7 (beta-1,4-galactosyltransferase 7) | SID315478183 | -0.45 | enough cells in well
Rabep2 (rabaptin, RAB GTPase binding effector protein 2) | SID315474009 | -0.83 | enough cells in well
Emc6 (ER membrane protein complex subunit 6) | SID315472178 | -0.16 | enough cells in well
Wfdc15a (WAP four-disulfide core domain 15A) | SID315473460 | -1.42 (active) | enough cells in well
Oxnad1 (oxidoreductase NAD-binding domain containing 1) | SID315478220 | 0.08 | enough cells in well
Otos (otospiralin) | SID315480732 | -0.56 | enough cells in well
Deptor (DEP domain containing MTOR-interacting protein) | SID315476115 | 1.25 | enough cells in well

Entries listed so far whose gene name starts with S or s (3):
gene knocked down | PubChem SID | Tnf reporter robust z-score | fewer than 50 cells in well
Serpinb9c (serine (or cysteine) peptidase inhibitor, clade B, member 9c) | SID315469409 | 1 | enough cells in well
Slc18a2 | SID315477839 | 0.36 | enough cells in well
Serpinb12 | SID315474356 | 1.59 | enough cells in well

Further results follow.
gene knocked down | PubChem SID | Tnf reporter robust z-score | fewer than 50 cells in well
Piwil2 (piwi-like RNA-mediated gene silencing 2) | SID315471805 | 0.56 | enough cells in well
Skint3 (selection and upkeep of intraepithelial T cells 3) | SID315477465 | 0.83 | enough cells in well
Vmn1r24 (vomeronasal 1 receptor 24) | SID315477280 | 1.77 | enough cells in well
Aox3 (aldehyde oxidase 3) | SID315474295 | 1.07 | enough cells in well
Gramd4 (GRAM domain containing 4) | SID315478288 | 0.9 | enough cells in well
Mela (melanoma antigen) | SID315467897 | -0.6 | enough cells in well
Stk40 (serine/threonine kinase 40) | SID315474889 | 2.24 | enough cells in well
Stk40 (serine/threonine kinase 40) | SID315474889 | – | fewer than 50 cells per well; well left out of calls
Phxr4 (per-hexamer repeat gene 4) | SID315468502 | 0.75 | enough cells in well
Tex21 (testis expressed gene 21) | SID315475701 | 1.5 | enough cells in well
Nsun2 (NOL1/NOP2/Sun domain family member 2) | SID315470681 | -0.09 | enough cells in well
Ubqln1 (ubiquilin 1) | SID315471367 | 0.55 | enough cells in well
Emg1 (EMG1 N1-specific pseudouridine methyltransferase) | SID315467019 | 0.22 | enough cells in well
Golga7 (golgin A7) | SID315471790 | 0.68 | enough cells in well
Hsp90aa1 (heat shock protein 90, alpha (cytosolic), class A member 1) | SID315467328 | 1.11 | enough cells in well
Polrmt (polymerase (RNA) mitochondrial (DNA directed)) | SID315477977 | 2.39 | enough cells in well
Tm9sf2 (transmembrane 9 superfamily member 2) | SID315473396 | -1.62 (active) | enough cells in well
Nsd3 (nuclear receptor binding SET domain protein 3) | SID315479141 | -0.04 | enough cells in well
Sars2 (seryl-aminoacyl-tRNA synthetase 2) | SID315474406 | 1.52 | enough cells in well
Etv1 (ets variant 1) | SID315466576 | -0.11 | enough cells in well
Zmym5 (zinc finger, MYM-type 5) | SID315478236 | -0.38 | enough cells in well
Ftl2-ps (ferritin light polypeptide 2, pseudogene) | SID315466760 | 1.79 | enough cells in well
Misp (mitotic spindle positioning) | SID315475646 | -0.31 | enough cells in well
Gucy1a1 (guanylate cyclase 1, soluble, alpha 1) | SID315472033 | -0.1 | enough cells in well
Ly6g6g (lymphocyte antigen 6 family member G6G) | SID315475604 | -0.91 | enough cells in well
Igtp (interferon gamma induced GTPase) | SID315467417 | -0.21 | enough cells in well
Or5ak23 (olfactory receptor family 5 subfamily AK member 23) | SID315480109 | -0.67 | enough cells in well
Slamf9 (SLAM family member 9) | SID315476128 | 3.32 (active) | enough cells in well
